Test system: PfK1
Format: cell-based, Plasmodium falciparum
Details: resistance index

SMILES | RI (IC50 K1/IC50 NF54)
Cc1ccc2c(c1)nc(-[c-]1cccc1CN(C)C)n2CCNCCNc1ccnc2cc(Cl)ccc12.[Fe+2].c1cc[cH-]c1 (stereo not drawn) [Complex C4, N1-(7-Chloroquinolin-4-yl)-N2-(2-(5-methyl-2-(2-N,N-dimethylaminomethyl)ferrocenyl-1H-benzo[d]imidazole-1-yl)ethyl)ethane-1,2-diamine] | 4.5
CCN(CC)CCCC(C)Nc1ccnc2cc(Cl)ccc12 (stereo not drawn) [CQ, chloroquine, reference compound] | 11.3
CN(C)Cc1ccc[c-]1CNc1ccnc2cc(Cl)ccc12.[Fe+2].c1cc[cH-]c1 (stereo not drawn) [FQ, ferroquine, reference compound] | 1.20

— PMC12344774, “Ferrocenyl Quinoline-Benzimidazole Hybrids: A Multistage Strategy to Combat Drug-Resistant Malaria” (Inorganic Chemistry, 2025)
